ChEMBL document CHEMBL4020705, “Investigation of aryl isonitrile compounds with potent, broad-spectrum antifungal activity” (Bioorg Med Chem, 2017)
≈ marks a conversion by molar mass, not a printed value.

Test system: Candida parapsilosis
Assay: Antifungal activity against Candida parapsilosis ATCC 22019 after 44 hrs by broth dilution assay
Type: functional
Conditions: Lodderomyces parapsilosis, ATCC 22019, 44 h
In short: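 Yeast broth microdilution per CLSI M27-A3, in RPMI-1640. Incubation is at 37 °C for at least 44 h. MIC is the lowest concentration with no visible growth, read by eye.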

For `OC(Cn1cncn1)(Cn1cncn1)c1ccc(F)cc1F` [FLUCONAZOLE], the MIC was 1 µM (≈ 0.306 µg/mL).
